The target of assay [1] is T1, MAP kinase 12 (MPK12), Col-0 version, split-ubiquitin two-hybrid fusion (Arabidopsis thaliana) (UniProt Q8GYQ5).
T1 sequence: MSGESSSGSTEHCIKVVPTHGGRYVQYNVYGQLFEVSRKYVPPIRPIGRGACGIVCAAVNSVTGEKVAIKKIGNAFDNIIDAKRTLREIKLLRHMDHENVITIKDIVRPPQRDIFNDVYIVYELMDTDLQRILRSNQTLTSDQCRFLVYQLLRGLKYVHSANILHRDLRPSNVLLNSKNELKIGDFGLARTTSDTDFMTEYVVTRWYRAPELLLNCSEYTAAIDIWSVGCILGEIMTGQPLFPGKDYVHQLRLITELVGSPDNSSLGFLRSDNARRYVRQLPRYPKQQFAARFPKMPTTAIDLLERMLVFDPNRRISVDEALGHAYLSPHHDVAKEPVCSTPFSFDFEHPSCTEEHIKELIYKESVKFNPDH
Kind of assay: two-hybrid.

The chains behind the UniProt entries cited, without tags or fusion partners. Where a name states a change or a piece, a line headed by the entry shows the natural chain unless it says otherwise.
UniProt P49597, whole entry: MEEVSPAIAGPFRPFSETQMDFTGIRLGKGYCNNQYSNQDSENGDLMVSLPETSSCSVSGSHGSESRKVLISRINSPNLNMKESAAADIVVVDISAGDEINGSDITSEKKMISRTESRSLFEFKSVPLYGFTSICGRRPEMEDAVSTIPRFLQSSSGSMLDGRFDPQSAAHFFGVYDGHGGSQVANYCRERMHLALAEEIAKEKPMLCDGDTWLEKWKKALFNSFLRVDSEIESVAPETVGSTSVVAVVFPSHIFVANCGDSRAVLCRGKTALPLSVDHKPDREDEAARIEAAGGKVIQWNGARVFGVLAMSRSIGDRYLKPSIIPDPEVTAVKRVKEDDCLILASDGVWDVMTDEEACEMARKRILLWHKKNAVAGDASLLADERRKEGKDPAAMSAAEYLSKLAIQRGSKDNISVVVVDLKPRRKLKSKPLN
UniProt O04719, whole entry: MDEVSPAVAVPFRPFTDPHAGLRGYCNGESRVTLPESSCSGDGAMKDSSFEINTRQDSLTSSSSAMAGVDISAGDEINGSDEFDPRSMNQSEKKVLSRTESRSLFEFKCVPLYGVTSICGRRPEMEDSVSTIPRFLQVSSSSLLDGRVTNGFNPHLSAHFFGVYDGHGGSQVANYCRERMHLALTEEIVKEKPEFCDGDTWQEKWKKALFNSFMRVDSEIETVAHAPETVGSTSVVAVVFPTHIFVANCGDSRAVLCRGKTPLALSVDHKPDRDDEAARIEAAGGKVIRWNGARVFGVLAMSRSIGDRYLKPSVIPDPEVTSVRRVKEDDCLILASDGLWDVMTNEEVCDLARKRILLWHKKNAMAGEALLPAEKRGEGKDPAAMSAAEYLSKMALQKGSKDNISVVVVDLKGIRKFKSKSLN

Assay [2] deals with T2, protein kinase HT1 (HIGH LEAF TEMPERATURE 1), split-ubiquitin two-hybrid fusion (Arabidopsis thaliana) (UniProt Q2MHE4).
T2 sequence: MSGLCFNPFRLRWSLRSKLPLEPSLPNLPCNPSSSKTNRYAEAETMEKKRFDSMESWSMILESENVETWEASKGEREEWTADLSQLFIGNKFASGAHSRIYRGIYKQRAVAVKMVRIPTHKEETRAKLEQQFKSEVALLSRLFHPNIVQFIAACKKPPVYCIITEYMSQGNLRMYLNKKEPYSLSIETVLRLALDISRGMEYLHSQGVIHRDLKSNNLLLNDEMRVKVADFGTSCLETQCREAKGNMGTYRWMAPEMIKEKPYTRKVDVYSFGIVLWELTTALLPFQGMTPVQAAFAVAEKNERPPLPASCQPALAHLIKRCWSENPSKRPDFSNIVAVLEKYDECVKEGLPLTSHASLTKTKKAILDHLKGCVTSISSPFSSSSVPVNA
Kind of assay: two-hybrid.

For assay [3], the target named is T2, protein kinase HT1 (HIGH LEAF TEMPERATURE 1), split-ubiquitin two-hybrid fusion (Arabidopsis thaliana). Put plainly: two-hybrid. The source holds these as a separate data set.
The target of assay [4] is T3, HT1, split-YFP fusion for BiFC (Arabidopsis thaliana) (UniProt Q2MHE4).
T3 sequence: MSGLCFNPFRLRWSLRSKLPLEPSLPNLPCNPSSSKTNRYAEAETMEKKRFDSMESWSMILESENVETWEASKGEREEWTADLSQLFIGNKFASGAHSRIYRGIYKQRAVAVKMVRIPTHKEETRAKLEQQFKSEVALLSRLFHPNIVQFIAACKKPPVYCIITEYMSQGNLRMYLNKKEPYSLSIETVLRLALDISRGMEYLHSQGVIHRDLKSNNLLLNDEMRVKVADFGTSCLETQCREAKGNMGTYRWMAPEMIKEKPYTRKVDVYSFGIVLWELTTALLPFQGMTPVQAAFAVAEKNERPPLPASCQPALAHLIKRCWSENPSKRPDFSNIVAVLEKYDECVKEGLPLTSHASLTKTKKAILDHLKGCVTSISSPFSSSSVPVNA
Put plainly: split reporter.

Like-named read-outs stand apart in the source and are kept apart here. These are yes or no findings as the source states them, for the method shown. For some assays here: In cells and extracts the contact can be indirect. Some entries that bind do so weakly or less than the wild type. Where a sequence is shown, tags or fusion partners need not be part of it.

For “ABI1, split-ubiquitin two-hybrid prey (from UniProt P49597 1-434) (enzyme)”, the binding entry in assay [1] is listed as “no binding”.
“ABI2, split-ubiquitin two-hybrid prey (from UniProt O04719 1-423) (enzyme)”: the binding result in assay [1] was “no binding”.

B1: MKP2 (MAPK PHOSPHATASE 2), split-ubiquitin two-hybrid prey (enzyme, UniProt Q9M8K7 1-167)
chain: MEKVVDLFGVGEANSQKLLEGGKDLSEIQQGLFIGSVAEANNKDFLKSSNITHVLTVAVALAPPYPDDFVYKVIEVVDRSETDLTVYFDECYSFIDQAIQSGGGVLVHCFMGMSRSVTIVVAYLMKKHGMGFSKAMELVRSRRHQAYPNPGFISQLQQFEKSIQGNA
With B1, the binding entry in assay [1] is listed as “no binding”.

B2: MAP kinase 12 (MPK12), Col-0 version, split-ubiquitin two-hybrid fusion (enzyme, UniProt Q8GYQ5 1-372)
chain: MSGESSSGSTEHCIKVVPTHGGRYVQYNVYGQLFEVSRKYVPPIRPIGRGACGIVCAAVNSVTGEKVAIKKIGNAFDNIIDAKRTLREIKLLRHMDHENVITIKDIVRPPQRDIFNDVYIVYELMDTDLQRILRSNQTLTSDQCRFLVYQLLRGLKYVHSANILHRDLRPSNVLLNSKNELKIGDFGLARTTSDTDFMTEYVVTRWYRAPELLLNCSEYTAAIDIWSVGCILGEIMTGQPLFPGKDYVHQLRLITELVGSPDNSSLGFLRSDNARRYVRQLPRYPKQQFAARFPKMPTTAIDLLERMLVFDPNRRISVDEALGHAYLSPHHDVAKEPVCSTPFSFDFEHPSCTEEHIKELIYKESVKFNPDH
With B2, the binding result in assay [2] and in assay [3] was “binds” each time.

B3: Cvi-0 MPK12 (G53R), split-YFP fusion for BiFC (enzyme, UniProt Q8GYQ5 1-372)
chain: MSGESSSGSTEHCIKVVPTHGGRYVQYNVYGQLFEVSRKYVPPIRPIGRGACRIVCAAVNSVTGEKVAIKKIGNAFDNIIDAKRTLREIKLLRHMDHENVITIKDIVRPPQRDIFNDVYIVYELMDTDLQRILRSNQTLTSDQCRFLVYQLLRGLKYVHSANILHRDLRPSNVLLNSKNELKIGDFGLARTTSDTDFMTEYVVTRWYRAPELLLNCSEYTAAIDIWSVGCILGEIMTGQPLFPGKDYVHQLRLITELVGSPDNSSLGFLRSDNARRYVRQLPRYPKQQFAARFPKMPTTAIDLLERMLVFDPNRRISVDEALGHAYLSPHHDVAKEPVCSTPFSFDFEHPSCTEEHIKELIYKESVKFNPDH
On to B3, for which the binding entry in assay [4] was “binds”.

B4: Cvi-0 MPK12 (G53R), split-ubiquitin two-hybrid fusion (enzyme, UniProt Q8GYQ5 1-372)
chain: MSGESSSGSTEHCIKVVPTHGGRYVQYNVYGQLFEVSRKYVPPIRPIGRGACRIVCAAVNSVTGEKVAIKKIGNAFDNIIDAKRTLREIKLLRHMDHENVITIKDIVRPPQRDIFNDVYIVYELMDTDLQRILRSNQTLTSDQCRFLVYQLLRGLKYVHSANILHRDLRPSNVLLNSKNELKIGDFGLARTTSDTDFMTEYVVTRWYRAPELLLNCSEYTAAIDIWSVGCILGEIMTGQPLFPGKDYVHQLRLITELVGSPDNSSLGFLRSDNARRYVRQLPRYPKQQFAARFPKMPTTAIDLLERMLVFDPNRRISVDEALGHAYLSPHHDVAKEPVCSTPFSFDFEHPSCTEEHIKELIYKESVKFNPDH
As for B4, the binding result in assay [2] is reported as “binds”.

B5: MPK12 (Col-0 version), split-YFP fusion for BiFC (enzyme, UniProt Q8GYQ5 1-372)
chain: MSGESSSGSTEHCIKVVPTHGGRYVQYNVYGQLFEVSRKYVPPIRPIGRGACGIVCAAVNSVTGEKVAIKKIGNAFDNIIDAKRTLREIKLLRHMDHENVITIKDIVRPPQRDIFNDVYIVYELMDTDLQRILRSNQTLTSDQCRFLVYQLLRGLKYVHSANILHRDLRPSNVLLNSKNELKIGDFGLARTTSDTDFMTEYVVTRWYRAPELLLNCSEYTAAIDIWSVGCILGEIMTGQPLFPGKDYVHQLRLITELVGSPDNSSLGFLRSDNARRYVRQLPRYPKQQFAARFPKMPTTAIDLLERMLVFDPNRRISVDEALGHAYLSPHHDVAKEPVCSTPFSFDFEHPSCTEEHIKELIYKESVKFNPDH
As to B5, the binding result in assay [4] was “binds”.

B6: SnRK2.2, split-ubiquitin two-hybrid prey (enzyme, UniProt Q39192 1-362)
chain: MDPATNSPIMPIDLPIMHDSDRYDFVKDIGSGNFGVARLMTDRVTKELVAVKYIERGEKIDENVQREIINHRSLRHPNIVRFKEVILTPSHLAIVMEYAAGGELYERICNAGRFSEDEARFFFQQLISGVSYCHAMQICHRDLKLENTLLDGSPAPRLKICDFGYSKSSVLHSQPKSTVGTPAYIAPEILLRQEYDGKLADVWSCGVTLYVMLVGAYPFEDPQEPRDYRKTIQRILSVTYSIPEDLHLSPECRHLISRIFVADPATRITIPEITSDKWFLKNLPGDLMDENRMGSQFQEPEQPMQSLDTIMQIISEATIPTVRNRCLDDFMADNLDLDDDMDDFDSESEIDVDSSGEIVYAL
Consider B6, for which, in assay [1], the binding entry is “no binding”.

B7: BLUS1, split-ubiquitin two-hybrid prey (enzyme, UniProt O23304 1-487)
chain: MARNKLEFPLDAEAYEIICKIGVGVSASVYKAICIPMNSMVVAIKAIDLDQSRADFDSLRRETKTMSLLSHPNILNAYCSFTVDRCLWVVMPFMSCGSLHSIVSSSFPSGLPENCISVFLKETLNAISYLHDQGHLHRDIKAGNILVDSDGSVKLADFGVSASIYEPVTSSSGTTSSSLRLTDIAGTPYWMAPEVVHSHTGYGFKADIWSFGITALELAHGRPPLSHLPPLKSLLMKITKRFHFSDYEINTSGSSKKGNKKFSKAFREMVGLCLEQDPTKRPSAEKLLKHPFFKNCKGLDFVVKNVLHSLSNAEQMFMESQILIKSVGDDDEEEEEEDEEIVKNRRISGWNFREDDLQLSPVFPATESDSSESSPREEDQSKDKKEDDNVTITGYELGLGLSNEEAKNQEGEVVGFDKDLVLEKLKVLKKSLEHQRARVSIIIEALSGDKEEKSREEELLEMVEKLKIELETEKLKTLRADKDSVLG
Consider B7, for which the binding entry in assay [1] is recorded as “no binding”.

B8: HAB2, split-ubiquitin two-hybrid prey (enzyme, UniProt Q9LNP9 20-511)
chain: DSGISSTFDISELENVTDAADMLCNQKRQRYSNGVVDCIMGSVSEEKTLSEVRSLSSDFSVTVQESEEDEPLVSDATIISEGLIVVDARSEISLPDTVETDNGRVLATAIILNETTIEQVPTAEVLIASLNHDVNMEVATSEVVIRLPEENPNVARGSRSVYELECIPLWGTISICGGRSEMEDAVRALPHFLKIPIKMLMGDHEGMSPSLPYLTSHFFGVYDGHGGAQVADYCHDRIHSALAEEIERIKEELCRRNTGEGRQVQWEKVFVDCYLKVDDEVKGKINRPVVGSSDRMVLEAVSPETVGSTAVVALVCSSHIIVSNCGDSRAVLLRGKDSMPLSVDHKPDREDEYARIEKAGGKVIQWQGARVSGVLAMSRSIGDQYLEPFVIPDPEVTFMPRAREDECLILASDGLWDVMSNQEACDFARRRILAWHKKNGALPLAERGVGEDQACQAAAEYLSKLAIQMGSKDNISIIVIDLKAQRKFKTRS
As for B8, the binding result in assay [1] is given as “no binding”.

B9: SnRK3.11, split-ubiquitin two-hybrid prey (enzyme, UniProt Q9LDI3 1-446)
chain: MTKKMRRVGKYEVGRTIGEGTFAKVKFARNTDTGDNVAIKIMAKSTILKNRMVDQIKREISIMKIVRHPNIVRLYEVLASPSKIYIVLEFVTGGELFDRIVHKGRLEESESRKYFQQLVDAVAHCHCKGVYHRDLKPENLLLDTNGNLKVSDFGLSALPQEGVELLRTTCGTPNYVAPEVLSGQGYDGSAADIWSCGVILFVILAGYLPFSETDLPGLYRKINAAEFSCPPWFSAEVKFLIHRILDPNPKTRIQIQGIKKDPWFRLNYVPIRAREEEEVNLDDIRAVFDGIEGSYVAENVERNDEGPLMMNAFEMITLSQGLNLSALFDRRQDFVKRQTRFVSRREPSEIIANIEAVANSMGFKSHTRNFKTRLEGLSSIKAGQLAVVIEIYEVAPSLFMVDVRKAAGETLEYHKFYKKLCSKLENIIWRATEGIPKSEILRTITF
As for B9, the binding result in assay [1] was “no binding”.

B10: IBR5 (INDOLE-3-BUTYRIC ACID RESPONSE 5), split-ubiquitin two-hybrid prey (enzyme, UniProt Q84JU4 1-257)
chain: MRKRERENPCSICGHYHKYEEGEVCGVCGHCMPVSSDTVAPQQVHVSAFPSEILPEFLYLGSYDNASRSELLKTQGISRVLNTVPMCQNLYRNSFTYHGLDNEKVLQFDDAIKFLDQCEKDKARVLVHCMSGKSRSPAVVVAYLMKRKGWRLAESHQWVKQRRPSTDISPEFYQQLQEFEQGIFGSEMMSAMNINDAPTFGFGFPKIDNQAQAPVFNNAPTSSIFSSPASSIPPQEFTFGATPPKPTTGGDIAMDGS
Regarding B10, the binding result in assay [1] is listed as “binds”.

B11: MPK11, split-YFP fusion for BiFC (enzyme, UniProt Q9LMM5 1-369)
chain: MSIEKPFFGDDSNRGVSINGGRYVQYNVYGNLFEVSKKYVPPLRPIGRGASGIVCAAWNSETGEEVAIKKIGNAFGNIIDAKRTLREIKLLKHMDHDNVIAIIDIIRPPQPDNFNDVHIVYELMDTDLHHIIRSNQPLTDDHSRFFLYQLLRGLKYVHSANVLHRDLKPSNLLLNANCDLKIGDFGLARTKSETDFMTEYVVTRWYRAPELLLNCSEYTAAIDIWSVGCILGEIMTREPLFPGRDYVQQLRLITELIGSPDDSSLGFLRSDNARRYVRQLPQYPRQNFAARFPNMSVNAVDLLQKMLVFDPNRRITVDEALCHPYLAPLHEYNEEPVCVRPFHFDFEQPSLTEENIKELIYRESVKFNP
For B11, the binding result in assay [4] is recorded as “no binding”.

For the origin of these results see paper doi:10.1101/073015.
